Where two headings read alike, the source gives them in different places. Results are given in words; binding and its absence hold for the method and conditions named. Binding seen in cells or lysates may run through a third protein. Some binding calls cover weakened binding; strength is not graded here. For some assays here: Where a sequence is shown, tags or fusion partners need not be part of it.
T1: endogenous BICC1 of mIMCD3 cells (mouse (endogenous in mIMCD3)) (UniProt Q99MQ1)
T1 sequence: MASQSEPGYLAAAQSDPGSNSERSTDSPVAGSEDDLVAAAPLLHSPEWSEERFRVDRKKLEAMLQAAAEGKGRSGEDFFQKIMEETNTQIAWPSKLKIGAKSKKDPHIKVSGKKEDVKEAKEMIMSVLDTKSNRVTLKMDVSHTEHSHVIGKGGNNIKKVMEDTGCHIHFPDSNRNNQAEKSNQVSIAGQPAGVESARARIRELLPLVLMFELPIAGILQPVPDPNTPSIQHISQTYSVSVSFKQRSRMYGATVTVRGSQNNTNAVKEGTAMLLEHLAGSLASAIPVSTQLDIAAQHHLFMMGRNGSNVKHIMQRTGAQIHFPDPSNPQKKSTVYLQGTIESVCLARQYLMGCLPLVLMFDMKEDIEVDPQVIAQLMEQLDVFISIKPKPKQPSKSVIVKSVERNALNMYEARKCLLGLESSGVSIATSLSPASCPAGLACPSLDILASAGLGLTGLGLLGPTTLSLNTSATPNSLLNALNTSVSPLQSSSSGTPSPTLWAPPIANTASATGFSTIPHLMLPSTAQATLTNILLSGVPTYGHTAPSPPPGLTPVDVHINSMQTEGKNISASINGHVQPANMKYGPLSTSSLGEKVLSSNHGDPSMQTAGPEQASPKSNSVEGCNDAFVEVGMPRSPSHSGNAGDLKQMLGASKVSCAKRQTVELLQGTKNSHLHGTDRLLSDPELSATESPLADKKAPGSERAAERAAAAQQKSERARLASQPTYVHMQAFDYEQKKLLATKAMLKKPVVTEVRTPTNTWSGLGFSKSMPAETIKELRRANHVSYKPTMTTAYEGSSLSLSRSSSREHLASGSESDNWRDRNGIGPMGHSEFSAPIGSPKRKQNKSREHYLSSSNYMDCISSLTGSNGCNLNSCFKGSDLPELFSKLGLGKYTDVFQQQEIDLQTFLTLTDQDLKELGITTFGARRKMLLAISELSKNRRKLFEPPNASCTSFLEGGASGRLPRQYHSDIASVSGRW

Chains of the proteins cited; added tags and fusions are not shown.
UniProt Q8CJG0: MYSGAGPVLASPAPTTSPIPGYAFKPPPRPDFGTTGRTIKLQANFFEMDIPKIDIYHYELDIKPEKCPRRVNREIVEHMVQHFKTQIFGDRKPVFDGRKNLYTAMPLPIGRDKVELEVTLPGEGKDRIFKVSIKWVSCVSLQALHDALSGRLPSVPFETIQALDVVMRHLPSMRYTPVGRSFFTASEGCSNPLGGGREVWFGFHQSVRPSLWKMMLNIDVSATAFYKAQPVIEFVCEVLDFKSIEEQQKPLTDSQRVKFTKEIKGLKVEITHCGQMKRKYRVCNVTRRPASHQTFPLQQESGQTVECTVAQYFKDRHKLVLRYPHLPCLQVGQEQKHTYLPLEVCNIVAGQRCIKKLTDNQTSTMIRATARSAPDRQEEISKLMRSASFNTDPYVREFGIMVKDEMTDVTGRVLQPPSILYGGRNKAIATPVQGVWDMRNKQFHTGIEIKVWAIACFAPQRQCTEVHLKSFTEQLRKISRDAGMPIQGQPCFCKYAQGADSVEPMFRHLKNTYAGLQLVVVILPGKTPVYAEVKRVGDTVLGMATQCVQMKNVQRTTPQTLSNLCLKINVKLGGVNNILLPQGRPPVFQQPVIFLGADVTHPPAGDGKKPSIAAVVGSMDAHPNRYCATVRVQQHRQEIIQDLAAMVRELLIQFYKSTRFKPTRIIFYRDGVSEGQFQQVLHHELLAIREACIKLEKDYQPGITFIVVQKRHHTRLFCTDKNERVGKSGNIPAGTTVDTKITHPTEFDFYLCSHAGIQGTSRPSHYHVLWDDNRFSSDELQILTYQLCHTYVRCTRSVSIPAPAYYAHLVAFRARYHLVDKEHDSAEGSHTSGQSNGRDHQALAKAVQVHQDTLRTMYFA


What was measured:
[1] = biological target: T1, endogenous BICC1 of mIMCD3 cells (mouse (endogenous in mIMCD3)); assay: co-IP
[2] = biological target: T1, endogenous BICC1 of mIMCD3 cells (mouse (endogenous in mIMCD3)); assay: co-IP; remark: listed apart in the source

binding [1] | binding [2] | Molecule
binds |  | endogenous AGO2 of mIMCD3 cells (from UniProt Q8CJG0 1-860)
 | binds | human WT ANKS3-GFP fusion (protein, UniProt Q6ZW76-1 1-656) MSELSDEASEPELLNRSLSMWHGLGTQVSGEELDVPLDLHTAASIGQYEVVKECVQRRELDLNKKNGGGWTPLMYASYIGHDTIVHLLLEAGVSVNVPTPEGQTPLMLASSCGNESIAYFLLQQGAELEMKDIQGWTALFHCTSAGHQHMVRFLLDSGANANVREPICGFTPLMEAAAAGHEIIVQYFLNHGVKVDARDHSGATARMLAKQYGHMKIVALMDTYSPSLPKSLYRSPEKYEDLSSSDESCPAPQRQRPCRKKGVSIHEGPRALARITGIGLGGRAPRPRYEQAPPRGYVTFNSSGENPLEEEGLCCRDVTSPINERDVESSSSSSSREEHAFCANLGPVQSSSSSEGLARAQGLSSEASVESNEDSDHACKSSARKQAKSYMKTKNPDSQWPPRAATDREGFLAESSPQTQRAPYSGPQDLAALLEQIGCLKYLQVFEEQDVDLRIFLTLTESDLKEIGITLFGPKRKMTSAIARWHSSARPPGDALELAYADRLEAEMQELAIQLHKRCEEVEATRGQVCQEQELRAVVESCLLEQDRAREDLQARLRETWALARDAALVLDQLRACQAELSSRVRQDQPPGAATLGLAVPPADSKGWQASLQAMSLPELSGALEDRVREMGQALCLVTQSLEKLQVLNGKKWRET
